The values below come from publication PMC7819943, “Rice protein-binding microarrays: a tool to detect cis-acting elements near promoter regions in rice”.

The other results are listed elsewhere or left out.

The assay has as its target T1, OsSMF1 (Oryza sativa, UniProt Q6ZLB0 1-436).
T1 sequence: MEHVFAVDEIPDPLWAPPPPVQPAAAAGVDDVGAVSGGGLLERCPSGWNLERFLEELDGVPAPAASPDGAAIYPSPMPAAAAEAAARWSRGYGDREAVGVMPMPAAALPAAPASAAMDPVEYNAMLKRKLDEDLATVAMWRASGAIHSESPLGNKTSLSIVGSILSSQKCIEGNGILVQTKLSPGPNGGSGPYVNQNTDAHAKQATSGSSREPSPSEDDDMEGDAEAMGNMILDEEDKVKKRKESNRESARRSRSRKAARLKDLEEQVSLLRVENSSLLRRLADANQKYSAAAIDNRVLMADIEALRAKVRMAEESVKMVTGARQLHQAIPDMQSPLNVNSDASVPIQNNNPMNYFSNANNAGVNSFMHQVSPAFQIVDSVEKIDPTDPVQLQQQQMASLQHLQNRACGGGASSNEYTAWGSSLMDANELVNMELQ
As to the kind of experiment: protein-binding microarray (RPBM); PBS, 2% BSA, 51.3 ng/ul salmon testes DNA, 50 uM zinc acetate, 200 nM TF, 25 C, 1 h; high values mean tight binding. As to conditions: protein: recombinant; tags: N-terminal polyhistidine and DsRed monomer fusion (pET32a); chain copies: 2; label: CyDye5-dUTP incorporated in the synthesized complementary strand; 3' TTTTT single-stranded linker to array surface; dsDNA, one strand shown. In outline: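 The binding signal is fluorescence intensity per array feature (arbitrary units). Readings came from an Axon 4000B scanner after a washed, 2% BSA-blocked, double-stranded custom Agilent array had been incubated for 1 h at 25 °C with 200 nM protein and 50 µM zinc acetate. The protein was a Ni–NTA-purified transcription factor fused N-terminally to polyhistidine and DsRed, expressed in E. coli BL21-CodonPlus.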
As for “CGCCTTTCCGCCCTGGCTGCCGCTAGTGTTGTCACCGGAGCGGAGTCACCTAGTGCAG”, the binding signal was 4190 fluorescence intensity (a.u.).

Turning to “GCCCGAGAGCGAACGGCCGTCTGCCACGTCATTTTCGCCGCGGAGTCACCTAGTGCAG”, the binding signal was 27300 fluorescence intensity (a.u.). Take “AGGGTTGGGGCAGTTGATGTCGATGATCAGTGTGATTCAGCGGAGTCACCTAGTGCAG”: the binding signal was 4340 fluorescence intensity (a.u.). Consider “CGTAGTGTAATTACATTGTAACTACAATGTAACTTATATGCGGAGTCACCTAGTGCAG”, for which the binding signal is 3160 fluorescence intensity (a.u.). Regarding “ATTATTAATTCAAAACATAGTACACATGTACACGTAGACACGGAGTCACCTAGTGCAG”, the binding signal was 7330 fluorescence intensity (a.u.). Next, “CCTGCCATCATATTTCATGCCTTGCTACGTTTGCTTGATGCGGAGTCACCTAGTGCAG”: 3980 fluorescence intensity (a.u.); “AAGCCCAATTGTTGGATGGCCCATCCAATTCAGTGCAGTCCGGAGTCACCTAGTGCAG”: 7120 fluorescence intensity (a.u.).

On to “CAGGTGTGTCCATTGAATTGAATTGAATTGAAACTATTGACGGAGTCACCTAGTGCAG”, for which the binding signal is 60900 fluorescence intensity (a.u.). Next, “ATATGTTTTGTTCGGTACTATTTTGCTATAACGTGTGACGCGGAGTCACCTAGTGCAG”: 3970 fluorescence intensity (a.u.); “CAATATGACATTGTATATGTGAATTGAGTGTAACTTGGTTCGGAGTCACCTAGTGCAG”: 3290 fluorescence intensity (a.u.). In the case of “AGACAAATAATTCCCTTTGCCATGCCTGTCAGTTAGGGAACGGAGTCACCTAGTGCAG”, the binding signal was 3500 fluorescence intensity (a.u.).

Take “CCGTCGCCGCCAAGCATCGAGCCGCCGGCCACAGCAGCCGCGGAGTCACCTAGTGCAG”: the binding signal is 42100 fluorescence intensity (a.u.).

For the sequence “TGCTCGACGCGCTCGACATGTCGGCGCCCAAGGACAGCCCCGGAGTCACCTAGTGCAG”, the binding signal was 11500 fluorescence intensity (a.u.).

As to “TTCCCCTTCCGCGACTGCGAGCTTCTCCGCCGCCGCCGCCCGGAGTCACCTAGTGCAG”, the binding signal was 3160 fluorescence intensity (a.u.). As to “TGGGCGAGGAAGATATGAGTGTGAAAGGATGGAGGGCCCACGGAGTCACCTAGTGCAG”, the binding signal is 32900 fluorescence intensity (a.u.).

Turning to “AGAAACCATTCCTGGCCACCAACCTCTCTATCCGCCAAAACGGAGTCACCTAGTGCAG”, the binding signal was 3240 fluorescence intensity (a.u.). Next, “CTGGATCCGCCTCTACGTACCCGTCATCGGCTCGCATCGCCGGAGTCACCTAGTGCAG”: 6740 fluorescence intensity (a.u.); “AGGAGGCCACGTAGGACGCATGACGTGGTTCGCGGCCAACCGGAGTCACCTAGTGCAG”: 15100 fluorescence intensity (a.u.). In the case of “CGTGGTTGATCCGTTGATGTTACGTATGTTGTGCACCGATCGGAGTCACCTAGTGCAG”, the binding signal was 3600 fluorescence intensity (a.u.). With “TCCTTCTCCACTTGGACGCACAAACCGCACACCTCGTGCCCGGAGTCACCTAGTGCAG”, the binding signal was 8370 fluorescence intensity (a.u.). For the sequence “GCAGAGAGAGGGGAGGAGGGTGGGTGGCGGCGGCGGCTAGCGGAGTCACCTAGTGCAG”, the binding signal was 6300 fluorescence intensity (a.u.). Consider “GCCCAAAGGTAAAATTTTCATTTTACCAACCGAGATAAAACGGAGTCACCTAGTGCAG”, for which the binding signal was 4970 fluorescence intensity (a.u.). Next, “GGGCATGAGACACAACTAGATCGTCAGATCAATACACACCCGGAGTCACCTAGTGCAG”: 3470 fluorescence intensity (a.u.); “TAGTGTACGAGACCGACCTTACGTGTTGATTATGCTAAGCCGGAGTCACCTAGTGCAG”: 5150 fluorescence intensity (a.u.); “GTCTCCTCCATCACGCCGATCATGTCCTGCATCATCAACACGGAGTCACCTAGTGCAG”: 6240 fluorescence intensity (a.u.). Next, “CAGGTACTTAACTTTAGTCCCTGTCTTTAGACACTAATTTCGGAGTCACCTAGTGCAG”: 5100 fluorescence intensity (a.u.). Next, “CTCCTCTCCTCTCTTCTCCACATCCACAAGAAATTTCGTACGGAGTCACCTAGTGCAG”: 3630 fluorescence intensity (a.u.). Regarding “CATTTTCCGCGATCCGTTGGAACCGACTTCTCATCAAATGCGGAGTCACCTAGTGCAG”, the binding signal is 8310 fluorescence intensity (a.u.). “GCAGAATCTTTGTATAATATATGGACGTGTTGCAGCTTTTCGGAGTCACCTAGTGCAG”: the binding signal is 3300 fluorescence intensity (a.u.).

Consider “TATCTGCATTGCATTACACATTTTGCTGTTTCTGTTAATGCGGAGTCACCTAGTGCAG”, for which the binding signal is 5870 fluorescence intensity (a.u.). Next, “GCTCCACATATACCGGAGACACGACACCTCCAGCGTTTGCCGGAGTCACCTAGTGCAG”: 3440 fluorescence intensity (a.u.); “TGTTCCTTATAAGTGAGATCCACTGTTATGTATTTAAGCGCGGAGTCACCTAGTGCAG”: 31400 fluorescence intensity (a.u.). The result for “AACCATCTTAGAGGATAATATGGATGGTATGACAAAGTTTCGGAGTCACCTAGTGCAG” reads 3430 fluorescence intensity (a.u.). For “ATATGCTCATCCCAAATTGGGCTTAAAATCTACAGTCACCCGGAGTCACCTAGTGCAG”, the binding signal was 3260 fluorescence intensity (a.u.). “GGGGAGGAGGAAGGCGTGGCGGTGGAGAACGAGATGAGCCCGGAGTCACCTAGTGCAG”: the binding signal is 3810 fluorescence intensity (a.u.). Take “GTCAACTTGCAAGTCCTTAATCTCCAAGATTGATCCGCATCGGAGTCACCTAGTGCAG”: the binding signal was 10900 fluorescence intensity (a.u.). With “CAACTTCATCAGCAGAAATTGACATGGTGTGATATTTGTGCGGAGTCACCTAGTGCAG”, the binding signal is 3330 fluorescence intensity (a.u.).

Consider “CGTATTCATGATGCGTCGTGATTCACGCACATACATTTGACGGAGTCACCTAGTGCAG”, for which the binding signal is 4250 fluorescence intensity (a.u.). Regarding “GGTGCTGTCATCGAGAGTGAAGCACACGTCAGTATCCCTGCGGAGTCACCTAGTGCAG”, the binding signal was 16700 fluorescence intensity (a.u.).

For the sequence “AACACGTCTGACGGTGTGAGGCAGCAGCCGATGTTCTCACCGGAGTCACCTAGTGCAG”, the binding signal was 4870 fluorescence intensity (a.u.).

Turning to “GTCTTTTGATGCGACGCGATGTGACTCGCCCGACCCAACTCGGAGTCACCTAGTGCAG”, the binding signal was 3780 fluorescence intensity (a.u.).

For “GCGGATTCCCGTGCAAATAGGGCCTCCACGTGGCGCGGCGCGGAGTCACCTAGTGCAG”, the binding signal was 17300 fluorescence intensity (a.u.).
